In this experiment the target is soluble human β-Klotho (Biacore, Example 8) (human) (UniProt Q86Z14). In words: Biacore competition binning; test antibody injected over soluble receptor captured on immobilized 24H11, 17D8 or 1A2.1. On the technique in general: SPR reads the build-up and loss of mass on a sensor chip optically.

Sequences of proteins named here, by UniProt entry; tags and fusion partners are left off. A change or cut given only in a name is not applied to a line headed by its entry.
UniProt Q86Z14: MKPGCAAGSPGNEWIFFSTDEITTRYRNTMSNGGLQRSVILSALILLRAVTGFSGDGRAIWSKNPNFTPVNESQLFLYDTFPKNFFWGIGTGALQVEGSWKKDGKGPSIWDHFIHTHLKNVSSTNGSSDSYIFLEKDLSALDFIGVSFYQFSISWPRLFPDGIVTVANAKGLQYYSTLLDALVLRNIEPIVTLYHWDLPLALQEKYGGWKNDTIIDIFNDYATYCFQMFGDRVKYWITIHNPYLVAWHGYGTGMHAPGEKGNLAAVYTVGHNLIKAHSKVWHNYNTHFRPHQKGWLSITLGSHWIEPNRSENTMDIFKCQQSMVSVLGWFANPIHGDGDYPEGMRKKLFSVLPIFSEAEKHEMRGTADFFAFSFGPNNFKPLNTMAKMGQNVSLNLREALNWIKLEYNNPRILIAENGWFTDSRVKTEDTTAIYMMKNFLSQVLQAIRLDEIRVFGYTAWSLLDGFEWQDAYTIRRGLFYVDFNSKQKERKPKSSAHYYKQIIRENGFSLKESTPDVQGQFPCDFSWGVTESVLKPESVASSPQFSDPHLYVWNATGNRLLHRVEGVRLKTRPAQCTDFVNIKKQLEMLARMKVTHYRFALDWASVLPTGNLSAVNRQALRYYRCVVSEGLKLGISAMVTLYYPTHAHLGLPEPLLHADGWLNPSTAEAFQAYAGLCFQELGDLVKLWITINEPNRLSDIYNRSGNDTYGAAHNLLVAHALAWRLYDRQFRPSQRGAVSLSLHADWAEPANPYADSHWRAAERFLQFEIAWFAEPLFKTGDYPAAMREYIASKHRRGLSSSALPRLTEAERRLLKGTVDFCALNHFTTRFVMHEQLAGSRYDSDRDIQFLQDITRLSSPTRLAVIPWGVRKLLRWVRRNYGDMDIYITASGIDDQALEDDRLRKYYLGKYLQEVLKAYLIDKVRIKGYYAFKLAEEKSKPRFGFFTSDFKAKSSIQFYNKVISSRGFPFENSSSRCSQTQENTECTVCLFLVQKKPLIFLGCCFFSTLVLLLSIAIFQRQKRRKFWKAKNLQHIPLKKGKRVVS

For one molecule, binding results are on record in patent US20110135657A1.

No constants are given. Whether binding was seen depends on the method and setting. Some entries that bind do so weakly or less than the wild type.

B1: 18B11.1 (antibody, human IgG2, kappa, V domains shown)
VH: EVQLVESGGGLVKPGGSLRLSCAASGFTFSDAWMSWVRQAPGKGLEWVGRIKSKTDGGTTDYAAPVKGRFTISRDDSKNTLYLQMNSLKTEDTAVYFCTSTYSSGWYVWDYYGMDVWGQGTTVTVSS
VL: DIVMTQSPLSLPVTPGEPASISCRSSQSLLYYNGFTYLDWFLQKPGQSPHLLIYLGSNRASGVPDRFSGSVSGTDFTLKISRVEAEDVGVYYCMQSLQTPFTFGPGTKVDIKR
As for B1, the binding entry is “binds”.
